From the supplement of paper PMC12542422 come the findings set out here.

Counter-ions that a name gives are not always drawn. ± gives the standard deviation of the averaged measurements. The list shows a part of the results. These are raw signals, not scaled to a control.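 HeLa cells imaged for ribosome-assembly readouts (ENP1 staining with or without export block, or inducible tagged ribosomal protein reporters); machine learning classified each cell's signal location against solvent (DMSO) controls. Hits exceeded the DMSO false-positive mean by five standard deviations, then were visually confirmed; three biological replicates.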

For this experiment, the system named is HeLa RPL29-GFP reporter. Nature of the experiment: fraction of reporter-positive cells with nuclear (nucleolar or nucleolar/nucleoplasmic) RPL29-GFP (MainHitrate); higher = more cells with nucleolar/nuclear readout signal (for ENP1 -LMB: less RNAPI inhibition; for +LMB ENP1 and RP reporters: stronger nuclear/nucleolar retention, i.e. ribosome biogenesis defect). The conditions noted are these: concentration: 1 µM; treatment time: 6 h.
On to `Nc1ccn([C@H]2CC[C@@H](CO)O2)c(=O)n1` [Zalcitabine], for which the “fraction of reporter-positive cells with nuclear” value (from here on “fraction”) was determined as 0.194 ± 0.076.
The figure for `Cc1[nH]c(=O)c(C#N)cc1-c1ccncc1` [Milrinone (Primacor)] is 0.239 ± 0.084; for `C[C@]12CCC3=C4CCC(=O)C=C4CC[C@H]3[C@@H]1CC[C@@]2(O)CC#N` [Dienogest] it is 0.215 ± 0.074; for `CN(C)CCCOc1nn(Cc2ccccc2)c2ccccc12` [Benzydamine Hydrochloride] it is 0.21 ± 0.077.
The figure for `CS(=O)(=O)OCCCCOS(C)(=O)=O` [Busulfan (Myleran, Busulfex)] is 0.223 ± 0.063.
The figure for `CS(=O)(=O)c1ccc([C@@H](O)[C@@H](CO)NC(=O)C(Cl)Cl)cc1` [Thiamphenicol (Thiophenicol)] is 0.2 ± 0.042; for `CCC[C@@H]1C[C@@H](C(=O)N[C@@H]([C@H]2O[C@H](SC)[C@H](OP(=O)(O)O)[C@@H](O)[C@H]2O)[C@H](C)Cl)N(C)C1` [Clindamycin phosphate] it is 0.238 ± 0.078; for `NC(=O)c1cccnc1` [Nicotinamide (Niacinamide)] it is 0.231 ± 0.05.
For `NC[C@H]1O[C@H](O[C@H]2[C@H](O)[C@@H](O[C@H]3O[C@H](CO)[C@@H](O)[C@H](N)[C@H]3O)[C@H](N)C[C@@H]2N)[C@H](N)C[C@@H]1O` [Tobramycin], the “fraction” value turned out to be 0.202 ± 0.061.
The figure for `COc1ccccc1OCC(O)CN1CCN(CC(=O)Nc2c(C)cccc2C)CC1` (stereo not drawn) [Ranolazine (Ranexa)] is 0.281 ± 0.13; for `CC(COc1ccccc1)N(CCCl)Cc1ccccc1` (stereo not drawn) [Phenoxybenzamine HCl] it is 0.21 ± 0.066.
For the compound `CN1[C@@H]2CC[C@H]1C[C@@H](OC(c1ccccc1)c1ccccc1)C2` [Benztropine mesylate], the “fraction” value turned out to be 0.226 ± 0.073.
Then `C#C[C@]1(OC(C)=O)CC[C@H]2[C@@H]3CCC4=C[C@@H](OC(C)=O)CC[C@@H]4[C@H]3CC[C@@]21C` [Ethynodiol diacetate], with 0.205 ± 0.079.
